Results are given in words; binding and its absence hold for the method and conditions named. In cells and extracts the contact can be indirect. These calls come from enrichment with a bait or labelling near it, and not all partners need be listed.
Tests used:
[1] = target: GFP-P1 (rabies virus CVS-11 phosphoprotein, full-length isoform P1, fused to GFP) (rabies virus, strain CVS-11) (UniProt P22363); test: affinity purification with mass spectrometry
[2] = target: GFP-P3 (rabies virus CVS-11 phosphoprotein, truncated isoform P3, residues 53-297, fused to GFP) (rabies virus, strain CVS-11) (UniProt P22363); test: affinity purification with mass spectrometry

The chains behind the UniProt entries cited, without tags or fusion partners. Where a name states a change or a piece, a line headed by the entry shows the natural chain unless it says otherwise. A line that says so, or that is headed by a name, gives the form on record, which may keep a tag or linker. Residues count along the entry.
UniProt P22363: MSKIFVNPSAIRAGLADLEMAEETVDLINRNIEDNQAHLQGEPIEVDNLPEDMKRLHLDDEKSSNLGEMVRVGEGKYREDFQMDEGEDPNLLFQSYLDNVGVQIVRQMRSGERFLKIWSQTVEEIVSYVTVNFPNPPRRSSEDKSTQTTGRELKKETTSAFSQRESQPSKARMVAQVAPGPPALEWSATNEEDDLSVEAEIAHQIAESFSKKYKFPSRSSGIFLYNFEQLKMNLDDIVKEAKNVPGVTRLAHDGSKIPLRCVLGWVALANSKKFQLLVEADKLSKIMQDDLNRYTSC
GFP-P3 (rabies virus CVS-11 phosphoprotein, truncated isoform P3, residues 53-297, fused to GFP): residues 53-297 of P22363
UniProt Q13283: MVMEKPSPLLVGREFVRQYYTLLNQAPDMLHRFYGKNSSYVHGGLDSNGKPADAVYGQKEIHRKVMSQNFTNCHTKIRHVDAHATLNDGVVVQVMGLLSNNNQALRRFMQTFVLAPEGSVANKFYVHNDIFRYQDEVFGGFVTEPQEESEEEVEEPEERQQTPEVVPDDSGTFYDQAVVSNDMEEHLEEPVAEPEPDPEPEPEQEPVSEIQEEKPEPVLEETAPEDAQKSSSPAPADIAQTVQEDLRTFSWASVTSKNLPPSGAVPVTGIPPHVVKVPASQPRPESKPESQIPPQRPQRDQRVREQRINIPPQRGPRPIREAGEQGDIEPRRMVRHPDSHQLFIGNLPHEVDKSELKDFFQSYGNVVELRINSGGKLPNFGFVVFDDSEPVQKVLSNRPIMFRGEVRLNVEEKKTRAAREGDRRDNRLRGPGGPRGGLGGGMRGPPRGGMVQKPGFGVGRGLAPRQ
UniProt Q9UN86: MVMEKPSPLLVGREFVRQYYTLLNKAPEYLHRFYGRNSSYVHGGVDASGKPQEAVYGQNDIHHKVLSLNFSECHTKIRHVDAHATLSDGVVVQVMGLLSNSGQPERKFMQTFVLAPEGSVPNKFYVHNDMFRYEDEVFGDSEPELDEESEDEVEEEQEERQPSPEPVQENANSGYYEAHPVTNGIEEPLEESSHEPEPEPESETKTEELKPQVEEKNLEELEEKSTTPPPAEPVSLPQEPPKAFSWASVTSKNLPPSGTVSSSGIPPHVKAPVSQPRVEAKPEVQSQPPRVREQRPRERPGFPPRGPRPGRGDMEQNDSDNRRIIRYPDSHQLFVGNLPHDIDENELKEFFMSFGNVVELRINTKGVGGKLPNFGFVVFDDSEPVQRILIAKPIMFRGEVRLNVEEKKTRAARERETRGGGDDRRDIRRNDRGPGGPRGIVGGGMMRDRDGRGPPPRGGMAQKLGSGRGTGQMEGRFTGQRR
UniProt Q14978: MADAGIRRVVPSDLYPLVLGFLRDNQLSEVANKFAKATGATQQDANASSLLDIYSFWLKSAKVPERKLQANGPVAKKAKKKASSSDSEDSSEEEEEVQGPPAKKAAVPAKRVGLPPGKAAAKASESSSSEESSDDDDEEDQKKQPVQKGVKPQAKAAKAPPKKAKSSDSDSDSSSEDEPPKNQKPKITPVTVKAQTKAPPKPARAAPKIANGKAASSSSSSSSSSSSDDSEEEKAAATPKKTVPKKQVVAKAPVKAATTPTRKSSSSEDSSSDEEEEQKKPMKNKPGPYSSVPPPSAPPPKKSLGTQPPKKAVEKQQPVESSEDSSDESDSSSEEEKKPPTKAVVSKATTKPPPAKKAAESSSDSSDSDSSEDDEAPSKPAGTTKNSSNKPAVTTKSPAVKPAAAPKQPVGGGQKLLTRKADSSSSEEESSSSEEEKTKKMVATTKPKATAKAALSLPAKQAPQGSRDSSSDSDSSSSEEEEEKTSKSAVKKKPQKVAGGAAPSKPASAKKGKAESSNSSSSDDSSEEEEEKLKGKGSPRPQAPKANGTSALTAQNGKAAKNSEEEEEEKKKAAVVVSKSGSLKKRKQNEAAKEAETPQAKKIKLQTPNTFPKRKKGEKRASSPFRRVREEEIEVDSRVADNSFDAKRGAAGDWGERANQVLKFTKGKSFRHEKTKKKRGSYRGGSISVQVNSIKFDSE
UniProt P11940: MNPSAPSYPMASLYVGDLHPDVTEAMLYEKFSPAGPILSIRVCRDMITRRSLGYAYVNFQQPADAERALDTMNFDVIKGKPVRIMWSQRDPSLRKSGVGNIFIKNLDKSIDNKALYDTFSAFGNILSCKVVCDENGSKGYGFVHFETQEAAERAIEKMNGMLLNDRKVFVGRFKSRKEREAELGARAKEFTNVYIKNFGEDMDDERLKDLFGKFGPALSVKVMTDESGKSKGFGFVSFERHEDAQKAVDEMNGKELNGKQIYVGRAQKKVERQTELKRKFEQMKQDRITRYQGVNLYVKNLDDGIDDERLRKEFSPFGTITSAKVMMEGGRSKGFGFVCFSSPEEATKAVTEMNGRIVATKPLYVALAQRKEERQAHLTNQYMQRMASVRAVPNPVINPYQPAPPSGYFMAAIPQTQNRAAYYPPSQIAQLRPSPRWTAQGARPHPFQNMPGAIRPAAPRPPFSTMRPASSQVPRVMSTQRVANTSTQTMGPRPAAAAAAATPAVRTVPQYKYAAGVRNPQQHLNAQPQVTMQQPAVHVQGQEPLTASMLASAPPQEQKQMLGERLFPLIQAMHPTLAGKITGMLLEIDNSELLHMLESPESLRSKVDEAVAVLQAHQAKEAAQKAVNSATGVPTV
UniProt Q9NR30: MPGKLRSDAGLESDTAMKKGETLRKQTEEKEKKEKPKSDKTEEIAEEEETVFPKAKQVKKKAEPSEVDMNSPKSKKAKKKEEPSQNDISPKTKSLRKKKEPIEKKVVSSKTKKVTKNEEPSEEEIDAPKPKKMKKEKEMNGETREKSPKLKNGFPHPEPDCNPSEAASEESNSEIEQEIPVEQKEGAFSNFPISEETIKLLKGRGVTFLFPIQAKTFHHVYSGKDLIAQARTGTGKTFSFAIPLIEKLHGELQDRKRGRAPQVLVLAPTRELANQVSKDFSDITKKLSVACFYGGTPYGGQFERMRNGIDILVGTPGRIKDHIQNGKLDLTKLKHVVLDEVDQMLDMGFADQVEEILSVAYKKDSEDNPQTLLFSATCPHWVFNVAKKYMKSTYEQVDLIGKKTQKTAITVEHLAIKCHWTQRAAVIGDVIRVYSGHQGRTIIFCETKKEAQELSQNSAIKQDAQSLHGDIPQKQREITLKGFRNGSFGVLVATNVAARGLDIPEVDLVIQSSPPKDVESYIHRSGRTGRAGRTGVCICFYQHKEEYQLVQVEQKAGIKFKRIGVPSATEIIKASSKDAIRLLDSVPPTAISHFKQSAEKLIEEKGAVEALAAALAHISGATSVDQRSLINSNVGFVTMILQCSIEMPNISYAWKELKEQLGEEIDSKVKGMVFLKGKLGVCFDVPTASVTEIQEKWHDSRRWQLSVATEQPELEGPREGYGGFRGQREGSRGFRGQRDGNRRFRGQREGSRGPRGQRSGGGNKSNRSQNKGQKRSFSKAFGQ
UniProt Q7Z2W4: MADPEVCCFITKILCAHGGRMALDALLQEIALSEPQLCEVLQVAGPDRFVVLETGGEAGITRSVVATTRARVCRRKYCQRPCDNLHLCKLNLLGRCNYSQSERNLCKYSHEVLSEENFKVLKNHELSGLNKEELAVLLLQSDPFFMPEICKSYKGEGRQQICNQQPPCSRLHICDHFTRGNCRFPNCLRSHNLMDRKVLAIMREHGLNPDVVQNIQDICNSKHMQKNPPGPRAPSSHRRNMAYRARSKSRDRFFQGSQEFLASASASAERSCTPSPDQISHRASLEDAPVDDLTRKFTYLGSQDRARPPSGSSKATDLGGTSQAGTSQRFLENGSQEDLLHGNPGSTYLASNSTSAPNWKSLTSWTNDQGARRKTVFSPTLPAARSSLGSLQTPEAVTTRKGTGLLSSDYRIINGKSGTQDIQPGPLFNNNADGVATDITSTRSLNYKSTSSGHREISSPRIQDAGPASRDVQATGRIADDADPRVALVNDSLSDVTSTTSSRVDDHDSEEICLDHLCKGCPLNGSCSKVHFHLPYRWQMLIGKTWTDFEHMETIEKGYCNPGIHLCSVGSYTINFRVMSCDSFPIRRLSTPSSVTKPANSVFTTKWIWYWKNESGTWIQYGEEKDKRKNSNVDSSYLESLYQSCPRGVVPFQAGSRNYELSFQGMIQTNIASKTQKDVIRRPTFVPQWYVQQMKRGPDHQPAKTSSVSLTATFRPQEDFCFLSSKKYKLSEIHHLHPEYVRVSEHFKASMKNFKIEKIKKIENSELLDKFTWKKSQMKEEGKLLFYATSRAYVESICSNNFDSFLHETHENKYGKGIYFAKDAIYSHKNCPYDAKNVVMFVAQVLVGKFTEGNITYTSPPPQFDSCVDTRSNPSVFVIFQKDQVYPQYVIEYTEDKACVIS
UniProt O14980: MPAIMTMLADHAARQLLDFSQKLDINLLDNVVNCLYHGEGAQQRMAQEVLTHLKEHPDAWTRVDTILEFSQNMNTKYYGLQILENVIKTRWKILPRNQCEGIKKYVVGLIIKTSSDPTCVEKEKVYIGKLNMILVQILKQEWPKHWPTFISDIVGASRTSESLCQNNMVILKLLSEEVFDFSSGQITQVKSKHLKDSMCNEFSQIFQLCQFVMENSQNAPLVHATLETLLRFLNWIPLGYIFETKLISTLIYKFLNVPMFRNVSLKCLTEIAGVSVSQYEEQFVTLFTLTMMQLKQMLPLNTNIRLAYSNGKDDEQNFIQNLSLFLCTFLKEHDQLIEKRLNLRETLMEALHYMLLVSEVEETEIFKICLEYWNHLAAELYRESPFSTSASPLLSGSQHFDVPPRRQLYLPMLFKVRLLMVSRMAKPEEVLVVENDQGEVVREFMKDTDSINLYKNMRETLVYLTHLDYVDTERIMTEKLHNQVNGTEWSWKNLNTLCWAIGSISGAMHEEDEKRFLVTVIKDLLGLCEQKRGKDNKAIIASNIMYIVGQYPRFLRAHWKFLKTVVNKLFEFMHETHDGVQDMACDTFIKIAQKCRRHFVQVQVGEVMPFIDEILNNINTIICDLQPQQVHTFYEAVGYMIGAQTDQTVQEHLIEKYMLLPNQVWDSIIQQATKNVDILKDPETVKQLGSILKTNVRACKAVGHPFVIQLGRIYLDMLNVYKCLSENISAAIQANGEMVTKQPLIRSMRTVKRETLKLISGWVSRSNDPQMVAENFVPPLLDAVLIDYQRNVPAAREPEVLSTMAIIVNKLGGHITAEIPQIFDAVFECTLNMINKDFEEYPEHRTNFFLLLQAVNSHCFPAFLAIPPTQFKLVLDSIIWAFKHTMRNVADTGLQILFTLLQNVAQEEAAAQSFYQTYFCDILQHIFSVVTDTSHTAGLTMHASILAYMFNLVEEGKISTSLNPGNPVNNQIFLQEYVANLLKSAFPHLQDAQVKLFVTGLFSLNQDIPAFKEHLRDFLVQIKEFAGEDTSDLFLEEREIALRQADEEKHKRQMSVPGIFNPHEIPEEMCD
UniProt P06748: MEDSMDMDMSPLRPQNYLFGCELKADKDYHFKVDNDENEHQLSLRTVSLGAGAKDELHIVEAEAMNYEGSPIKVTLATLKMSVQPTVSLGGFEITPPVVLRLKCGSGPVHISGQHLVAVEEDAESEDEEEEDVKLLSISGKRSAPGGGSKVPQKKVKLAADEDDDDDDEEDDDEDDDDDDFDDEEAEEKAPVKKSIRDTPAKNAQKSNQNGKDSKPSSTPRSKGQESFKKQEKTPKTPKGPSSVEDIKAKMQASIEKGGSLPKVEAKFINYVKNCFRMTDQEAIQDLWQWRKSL

| Substance | binding [1] | binding [2] |
| --- | --- | --- |
| G3BP1 (from UniProt Q13283 1-466) | binds | binds |
| G3BP2 (from UniProt Q9UN86 1-482) | – | binds |
| NOLC1 (from UniProt Q14978 1-699) | – | binds |
| PABPC1 (from UniProt P11940 1-636) | – | binds |
| RNA helicase DDX21 (from UniProt Q9NR30 1-783) | – | binds |
| ZC3HAV1 (from UniProt Q7Z2W4 1-902) | – | binds |
| nuclear export factor XPO1/CRM1 (from UniProt O14980 1-1071) | binds | – |
| nucleophosmin (NPM1) (from UniProt P06748 1-294) | binds | binds |

Source: article PMC12589655
